Experimental data: PubChem BioAssay AID1259280 (Sanger Institute, 2017)
Screen: 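Kinase knock-downs that kill colorectal cancer cells or add to anchor drugs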 (primary screen). Cell system: human SNU407 colorectal cancer cells. Reagents: siRNA pool against human genes. Challenge: anchor drugs BYL719 at 1 µM, cetuximab at 5 µg/ml or trametinib at 10 nM, or DMSO vehicle alone; exposure time not given. Detection: 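Viability per well scaled to a non-targeting pool and averaged over replicates, with a robust z-score from controls and a synergy score per anchor drug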. Direction: viability z-score, no drug and viability vs control, no drug: higher = more cells survive the knock-down. Units: viability vs control, no drug in fraction of control. Active means: 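a knock-down counts as essential when its robust viability z-score without drug is below -3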. Calls: active = essential (knock-down alone kills cells); inactive = no change without drug.
In all, the deposit lists 794 reagents; shown is a part drawn at random. 12 of them (1.5%) were called active. 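Calls cover knock-down without drug only; synergy scores stand apart, values above 0.15 being treated as synergy.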 A number with no mark means an inactive call. No viability above 1 is reported: the scale is capped. Further read-outs or replicates are left out here. Not stated in the record: the amount of reagent, the time to read-out.

EFNA4 (ephrin A4) — viability z-score, no drug = 0.237; viability vs control, no drug = 0.949
PRKCB (protein kinase C beta) — viability z-score, no drug = -0.605; viability vs control, no drug = 0.885
NEK10 (NIMA related kinase 10) — viability z-score, no drug = 0.461; viability vs control, no drug = 0.966
TPK1 (thiamin pyrophosphokinase 1) — viability z-score, no drug = -1.95; viability vs control, no drug = 0.782
STRADB (STE20 related adaptor beta) — viability z-score, no drug = 0.717; viability vs control, no drug = 0.986
STK32B (serine/threonine kinase 32B) — viability z-score, no drug = -0.294; viability vs control, no drug = 0.909
PAPSS1 (3'-phosphoadenosine 5'-phosphosulfate synthase 1) — viability z-score, no drug = 0.452; viability vs control, no drug = 0.966
EFNA3 (ephrin A3) — viability z-score, no drug = -1.32; viability vs control, no drug = 0.831
MAP3K6 (mitogen-activated protein kinase kinase kinase 6) — viability z-score, no drug = -0.213; viability vs control, no drug = 0.915
SMAD2 (SMAD family member 2) — viability z-score, no drug = 0.758; viability vs control, no drug = 0.989
BRD3 (bromodomain containing 3) — viability z-score, no drug = 0.405; viability vs control, no drug = 0.962

Copied from above (3 entries):
NEK10 (NIMA related kinase 10) — viability z-score, no drug = 0.461; viability vs control, no drug = 0.966
TPK1 (thiamin pyrophosphokinase 1) — viability z-score, no drug = -1.95; viability vs control, no drug = 0.782
STRADB (STE20 related adaptor beta) — viability z-score, no drug = 0.717; viability vs control, no drug = 0.986

More results follow.
NME6 (NME/NM23 nucleoside diphosphate kinase 6) — viability z-score, no drug = -0.18; viability vs control, no drug = 0.917
CSF1R (colony stimulating factor 1 receptor) — viability z-score, no drug = -0.116; viability vs control, no drug = 0.922
YES1 (YES proto-oncogene 1, Src family tyrosine kinase) — viability z-score, no drug = -0.264; viability vs control, no drug = 0.911
ATR (ATR checkpoint kinase) — viability z-score, no drug = 0.403; viability vs control, no drug = 0.962
CDKN2D (cyclin dependent kinase inhibitor 2D) — viability z-score, no drug = 0.106; viability vs control, no drug = 0.939
AXIN2 (axin 2) — viability z-score, no drug = -0.267; viability vs control, no drug = 0.911
CAMK2B (calcium/calmodulin dependent protein kinase II beta) — viability z-score, no drug = 0.682; viability vs control, no drug = 0.983
PKN3 (protein kinase N3) — viability z-score, no drug = 0.0761; viability vs control, no drug = 0.937
STK4 (serine/threonine kinase 4) — viability z-score, no drug = 0.609; viability vs control, no drug = 0.978
CHKB (choline kinase beta) — viability z-score, no drug = 0.901; viability vs control, no drug = 1
PRKAB1 (protein kinase AMP-activated non-catalytic subunit beta 1) — viability z-score, no drug = -1.32; viability vs control, no drug = 0.83
IP6K1 (inositol hexakisphosphate kinase 1) — viability z-score, no drug = 0.901; viability vs control, no drug = 1
CDK5R1 (cyclin dependent kinase 5 regulatory subunit 1) — viability z-score, no drug = -1; viability vs control, no drug = 0.855
FXN (frataxin) — viability z-score, no drug = 0.227; viability vs control, no drug = 0.949
AURKC (aurora kinase C) — viability z-score, no drug = 0.402; viability vs control, no drug = 0.962
ALPK1 (alpha kinase 1) — viability z-score, no drug = -1.01; viability vs control, no drug = 0.854
PIK3C2B — viability z-score, no drug = 0.397; viability vs control, no drug = 0.961
